The results in this text go back to article PMC10193809, “A small protein coded within the mitochondrial canonical gene nd4 regulates mitochondrial bioenergetics” (BMC Biology, 2023).

Protein sequences, listed by entry. Tags and fused reporters are not part of them. Residues count along the entry.
UniProt Q07021, residues 74-282: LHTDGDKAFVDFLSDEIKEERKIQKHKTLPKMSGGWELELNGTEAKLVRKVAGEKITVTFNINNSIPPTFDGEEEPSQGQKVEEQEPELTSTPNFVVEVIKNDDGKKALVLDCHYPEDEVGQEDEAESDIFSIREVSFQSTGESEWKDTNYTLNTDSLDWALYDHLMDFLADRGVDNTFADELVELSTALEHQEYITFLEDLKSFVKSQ

No constants are given. Whether binding was seen depends on the method and setting. In cells and extracts the contact can be indirect. Some binding calls cover weakened binding; strength is not graded here. Sequences can lack the tags named with a protein.

This test deals with T1, GST-MTALTND4 (human).
T1 sequence: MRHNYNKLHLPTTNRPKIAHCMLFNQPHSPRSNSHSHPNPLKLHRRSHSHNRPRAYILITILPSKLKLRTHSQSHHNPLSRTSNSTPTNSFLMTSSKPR
Nature of the test: pull-down; GST-MTALTND4 or GST alone on glutathione beads with HeLa or HEK-293T lysate; eluates blotted with anti-C1qbp antibody; only the target purified.

In the case of “complement component 1q subcomponent binding protein (C1qbp) (from UniProt Q07021 74-282)”, the binding result is “binds”.
